The entries are a selection whose mix differs from that of the whole data set. The data scatter; read single values as rough.
Compound: COC(=O)/C=C/c1ccccc1 [methyl cinnamate]
Assay: log2 ratio of iodoacetamide-alkyne labeling of the cysteine site, DMSO over compound (competition); higher = stronger covalent engagement of the cysteine by the compound, active = 1 or more
Conditions: 500 µM; treatment time 1 h; system: HEK293T cell lysate
Method in brief: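 After 1 h at ambient temperature with vehicle or electrophile (500 µM), HEK293T lysate (2 mg/mL) was labelled for 1 h with iodoacetamide alkyne and clicked to sCIP-TMT reagents. Pooled samples were trypsin-digested overnight at 37 °C, streptavidin-enriched, acid-eluted and analysed by Orbitrap Eclipse LC-MS/MS with FAIMS, then quantified in FragPipe over three replicates with duplicate channels. A cysteine's log2 competition ratio is its mean control-channel over mean compound-channel reporter intensity. Cysteines quantified in only one replicate were not included.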

Chains of the proteins cited; added tags and fusions are not shown. Lines headed by an entry give the natural chain unless they say otherwise; changes in a name come on top.
UniProt Q9HC52: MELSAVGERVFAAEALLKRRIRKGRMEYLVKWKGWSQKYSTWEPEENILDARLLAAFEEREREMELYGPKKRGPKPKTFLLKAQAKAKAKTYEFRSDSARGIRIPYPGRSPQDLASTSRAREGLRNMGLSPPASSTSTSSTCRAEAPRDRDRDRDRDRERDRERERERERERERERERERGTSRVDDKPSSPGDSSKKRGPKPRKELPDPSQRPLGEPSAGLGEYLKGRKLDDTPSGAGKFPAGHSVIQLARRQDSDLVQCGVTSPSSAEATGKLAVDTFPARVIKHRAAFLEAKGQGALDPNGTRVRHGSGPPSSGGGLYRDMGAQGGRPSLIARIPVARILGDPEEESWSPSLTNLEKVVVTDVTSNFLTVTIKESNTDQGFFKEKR
UniProt Q9H7S9: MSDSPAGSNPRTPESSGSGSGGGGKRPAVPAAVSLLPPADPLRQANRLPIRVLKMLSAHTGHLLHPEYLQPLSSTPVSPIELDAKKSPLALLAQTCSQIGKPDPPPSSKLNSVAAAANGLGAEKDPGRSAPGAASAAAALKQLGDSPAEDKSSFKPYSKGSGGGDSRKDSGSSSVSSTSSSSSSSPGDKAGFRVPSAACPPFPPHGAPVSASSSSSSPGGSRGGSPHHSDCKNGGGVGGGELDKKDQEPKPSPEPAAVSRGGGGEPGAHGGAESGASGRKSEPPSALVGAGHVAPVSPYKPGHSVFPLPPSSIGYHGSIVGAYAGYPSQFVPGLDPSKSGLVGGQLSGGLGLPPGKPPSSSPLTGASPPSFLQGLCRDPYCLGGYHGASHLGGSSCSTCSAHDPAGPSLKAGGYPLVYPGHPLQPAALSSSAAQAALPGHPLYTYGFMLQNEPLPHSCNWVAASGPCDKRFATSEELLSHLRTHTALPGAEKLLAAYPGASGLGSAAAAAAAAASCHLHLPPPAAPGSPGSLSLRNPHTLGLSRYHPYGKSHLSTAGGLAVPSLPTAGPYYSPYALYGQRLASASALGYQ
UniProt Q9H6U6: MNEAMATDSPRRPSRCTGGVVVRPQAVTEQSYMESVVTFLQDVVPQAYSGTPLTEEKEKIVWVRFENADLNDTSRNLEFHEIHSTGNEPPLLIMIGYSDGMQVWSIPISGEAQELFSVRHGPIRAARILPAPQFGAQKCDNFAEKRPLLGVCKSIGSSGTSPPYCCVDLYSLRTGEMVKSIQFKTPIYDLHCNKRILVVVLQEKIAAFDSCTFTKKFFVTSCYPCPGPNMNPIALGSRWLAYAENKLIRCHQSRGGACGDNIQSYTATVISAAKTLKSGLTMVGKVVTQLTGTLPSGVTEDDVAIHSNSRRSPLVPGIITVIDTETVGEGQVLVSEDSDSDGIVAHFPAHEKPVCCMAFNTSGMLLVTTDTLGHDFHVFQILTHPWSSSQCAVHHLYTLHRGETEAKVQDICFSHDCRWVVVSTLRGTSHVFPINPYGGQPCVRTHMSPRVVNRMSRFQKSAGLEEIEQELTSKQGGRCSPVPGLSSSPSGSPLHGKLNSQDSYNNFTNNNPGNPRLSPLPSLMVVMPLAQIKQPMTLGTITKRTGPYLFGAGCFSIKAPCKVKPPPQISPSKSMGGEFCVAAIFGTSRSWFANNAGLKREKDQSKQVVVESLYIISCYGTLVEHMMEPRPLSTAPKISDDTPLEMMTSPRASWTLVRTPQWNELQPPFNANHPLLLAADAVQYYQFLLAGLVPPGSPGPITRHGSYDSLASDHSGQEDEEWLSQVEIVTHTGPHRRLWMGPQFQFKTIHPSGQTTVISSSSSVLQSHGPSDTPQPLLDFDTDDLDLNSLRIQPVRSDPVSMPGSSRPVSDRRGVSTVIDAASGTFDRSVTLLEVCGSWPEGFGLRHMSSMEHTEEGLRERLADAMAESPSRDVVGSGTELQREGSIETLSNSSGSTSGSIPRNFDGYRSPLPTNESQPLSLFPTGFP
UniProt Q9NQW7: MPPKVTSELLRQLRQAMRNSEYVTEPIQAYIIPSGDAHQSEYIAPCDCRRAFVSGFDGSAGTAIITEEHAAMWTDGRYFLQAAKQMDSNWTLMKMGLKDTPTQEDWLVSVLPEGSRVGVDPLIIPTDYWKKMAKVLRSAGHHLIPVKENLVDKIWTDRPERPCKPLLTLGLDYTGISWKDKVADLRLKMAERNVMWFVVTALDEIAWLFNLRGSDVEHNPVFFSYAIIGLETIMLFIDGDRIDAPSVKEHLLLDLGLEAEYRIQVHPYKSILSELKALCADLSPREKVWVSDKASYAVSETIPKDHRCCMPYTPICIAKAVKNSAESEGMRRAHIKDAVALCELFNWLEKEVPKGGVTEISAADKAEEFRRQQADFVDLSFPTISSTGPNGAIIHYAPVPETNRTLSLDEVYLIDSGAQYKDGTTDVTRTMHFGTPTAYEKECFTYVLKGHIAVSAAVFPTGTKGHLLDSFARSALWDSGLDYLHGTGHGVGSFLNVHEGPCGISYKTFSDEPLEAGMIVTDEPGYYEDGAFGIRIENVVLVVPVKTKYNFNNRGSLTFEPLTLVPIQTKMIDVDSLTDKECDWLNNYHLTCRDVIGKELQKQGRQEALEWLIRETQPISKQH
UniProt Q9NRG9: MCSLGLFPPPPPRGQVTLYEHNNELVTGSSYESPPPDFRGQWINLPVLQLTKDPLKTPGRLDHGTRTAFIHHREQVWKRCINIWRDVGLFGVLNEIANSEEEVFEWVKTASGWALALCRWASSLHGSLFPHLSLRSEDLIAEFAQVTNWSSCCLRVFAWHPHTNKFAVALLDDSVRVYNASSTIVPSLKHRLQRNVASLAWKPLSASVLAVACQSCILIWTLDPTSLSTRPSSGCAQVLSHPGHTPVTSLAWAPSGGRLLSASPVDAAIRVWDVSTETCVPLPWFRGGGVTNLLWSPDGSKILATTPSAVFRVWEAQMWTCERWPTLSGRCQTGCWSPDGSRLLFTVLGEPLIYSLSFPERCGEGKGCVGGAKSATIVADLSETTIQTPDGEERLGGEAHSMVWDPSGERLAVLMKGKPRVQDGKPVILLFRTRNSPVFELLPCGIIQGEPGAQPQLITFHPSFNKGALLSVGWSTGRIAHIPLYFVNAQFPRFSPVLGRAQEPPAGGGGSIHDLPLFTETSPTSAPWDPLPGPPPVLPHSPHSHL
UniProt Q9NQG5: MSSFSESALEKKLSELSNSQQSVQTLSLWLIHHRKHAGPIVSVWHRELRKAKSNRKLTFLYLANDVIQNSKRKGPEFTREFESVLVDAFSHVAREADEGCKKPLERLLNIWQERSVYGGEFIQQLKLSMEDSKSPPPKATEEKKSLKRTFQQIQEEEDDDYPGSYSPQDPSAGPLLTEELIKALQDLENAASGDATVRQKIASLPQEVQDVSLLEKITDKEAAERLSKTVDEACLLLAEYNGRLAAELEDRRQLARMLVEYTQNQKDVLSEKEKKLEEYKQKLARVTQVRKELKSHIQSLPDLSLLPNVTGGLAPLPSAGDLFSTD
UniProt Q9NT62, whole entry, looked up: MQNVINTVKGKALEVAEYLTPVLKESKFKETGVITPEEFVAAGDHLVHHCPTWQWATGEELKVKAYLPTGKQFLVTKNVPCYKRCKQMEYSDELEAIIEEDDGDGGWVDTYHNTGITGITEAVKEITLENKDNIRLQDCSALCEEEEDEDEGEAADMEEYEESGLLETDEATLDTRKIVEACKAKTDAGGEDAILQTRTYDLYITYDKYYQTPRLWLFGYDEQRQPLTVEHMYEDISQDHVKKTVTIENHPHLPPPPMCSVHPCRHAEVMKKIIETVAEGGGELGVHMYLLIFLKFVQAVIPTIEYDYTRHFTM
UniProt Q9H9B1: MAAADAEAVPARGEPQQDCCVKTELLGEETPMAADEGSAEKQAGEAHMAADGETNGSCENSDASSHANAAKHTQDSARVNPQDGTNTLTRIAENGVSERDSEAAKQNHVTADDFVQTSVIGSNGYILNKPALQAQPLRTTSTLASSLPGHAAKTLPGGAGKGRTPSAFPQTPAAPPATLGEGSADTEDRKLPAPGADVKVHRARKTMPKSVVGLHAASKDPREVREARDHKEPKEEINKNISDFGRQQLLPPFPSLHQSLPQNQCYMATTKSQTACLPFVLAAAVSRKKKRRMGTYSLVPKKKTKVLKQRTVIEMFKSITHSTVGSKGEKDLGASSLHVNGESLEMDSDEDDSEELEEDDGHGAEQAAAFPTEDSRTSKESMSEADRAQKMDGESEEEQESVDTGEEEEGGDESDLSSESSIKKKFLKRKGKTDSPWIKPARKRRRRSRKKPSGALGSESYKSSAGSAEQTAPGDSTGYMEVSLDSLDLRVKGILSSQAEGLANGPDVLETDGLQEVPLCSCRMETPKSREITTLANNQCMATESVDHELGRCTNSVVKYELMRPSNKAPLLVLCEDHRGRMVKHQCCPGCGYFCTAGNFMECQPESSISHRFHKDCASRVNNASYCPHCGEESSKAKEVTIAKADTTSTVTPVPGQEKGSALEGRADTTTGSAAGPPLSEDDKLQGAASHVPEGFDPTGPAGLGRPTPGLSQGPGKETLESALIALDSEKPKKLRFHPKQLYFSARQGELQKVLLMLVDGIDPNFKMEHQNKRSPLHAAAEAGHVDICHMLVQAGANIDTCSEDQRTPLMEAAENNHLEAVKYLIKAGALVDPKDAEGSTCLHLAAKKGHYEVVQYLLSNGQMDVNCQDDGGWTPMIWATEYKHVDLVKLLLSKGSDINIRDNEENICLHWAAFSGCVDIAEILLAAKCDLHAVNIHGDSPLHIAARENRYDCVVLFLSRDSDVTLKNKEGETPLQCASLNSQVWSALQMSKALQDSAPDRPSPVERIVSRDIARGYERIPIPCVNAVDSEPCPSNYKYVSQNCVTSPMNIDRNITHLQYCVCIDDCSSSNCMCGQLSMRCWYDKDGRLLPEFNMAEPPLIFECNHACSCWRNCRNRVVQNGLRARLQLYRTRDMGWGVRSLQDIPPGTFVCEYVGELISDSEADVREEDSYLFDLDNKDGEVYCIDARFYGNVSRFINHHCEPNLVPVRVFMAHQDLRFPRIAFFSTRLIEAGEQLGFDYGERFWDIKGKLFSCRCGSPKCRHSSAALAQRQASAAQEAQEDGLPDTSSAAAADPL
UniProt Q9NRX1: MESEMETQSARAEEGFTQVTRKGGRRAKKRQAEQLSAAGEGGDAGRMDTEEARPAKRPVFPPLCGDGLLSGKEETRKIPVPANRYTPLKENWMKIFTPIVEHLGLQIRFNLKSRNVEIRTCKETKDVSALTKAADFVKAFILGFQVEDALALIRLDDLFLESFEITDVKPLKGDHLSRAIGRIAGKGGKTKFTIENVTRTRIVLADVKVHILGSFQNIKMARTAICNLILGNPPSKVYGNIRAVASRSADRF
UniProt Q9NSV4, whole entry: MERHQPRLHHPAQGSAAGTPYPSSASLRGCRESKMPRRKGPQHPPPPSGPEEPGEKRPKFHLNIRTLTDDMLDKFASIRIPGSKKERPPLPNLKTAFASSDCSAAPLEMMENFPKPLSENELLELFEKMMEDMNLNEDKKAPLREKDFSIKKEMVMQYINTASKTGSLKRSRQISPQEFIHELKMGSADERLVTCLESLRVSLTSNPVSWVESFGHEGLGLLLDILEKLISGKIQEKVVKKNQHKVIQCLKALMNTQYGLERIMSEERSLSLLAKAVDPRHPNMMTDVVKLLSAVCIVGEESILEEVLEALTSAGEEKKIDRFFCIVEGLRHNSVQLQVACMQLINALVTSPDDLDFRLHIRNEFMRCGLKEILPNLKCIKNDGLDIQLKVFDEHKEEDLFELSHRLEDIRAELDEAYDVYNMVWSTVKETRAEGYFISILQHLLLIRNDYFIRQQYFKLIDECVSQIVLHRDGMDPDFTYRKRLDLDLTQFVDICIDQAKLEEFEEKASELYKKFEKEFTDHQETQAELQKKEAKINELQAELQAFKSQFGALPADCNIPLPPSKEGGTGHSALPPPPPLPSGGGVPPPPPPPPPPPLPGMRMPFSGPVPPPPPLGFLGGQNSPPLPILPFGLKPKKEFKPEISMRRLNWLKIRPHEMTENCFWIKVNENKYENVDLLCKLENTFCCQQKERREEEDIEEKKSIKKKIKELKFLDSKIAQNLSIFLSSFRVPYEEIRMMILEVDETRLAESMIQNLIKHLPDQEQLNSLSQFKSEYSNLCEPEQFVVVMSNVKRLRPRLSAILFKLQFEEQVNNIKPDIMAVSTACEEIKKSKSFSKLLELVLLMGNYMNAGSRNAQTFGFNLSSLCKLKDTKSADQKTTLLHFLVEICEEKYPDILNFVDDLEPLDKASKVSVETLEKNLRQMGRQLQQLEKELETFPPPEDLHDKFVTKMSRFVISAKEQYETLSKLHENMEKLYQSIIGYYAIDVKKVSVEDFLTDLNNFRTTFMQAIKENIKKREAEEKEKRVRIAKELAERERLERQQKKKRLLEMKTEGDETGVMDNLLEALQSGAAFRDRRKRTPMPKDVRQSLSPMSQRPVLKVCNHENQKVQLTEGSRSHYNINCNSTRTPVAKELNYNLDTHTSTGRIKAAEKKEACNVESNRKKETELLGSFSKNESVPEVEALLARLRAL

Target | log2 ratio of iodoacetamide-alkyne labeling
GPHN C26 (UniProt Q9NQX3) | inactive: 0.0339
UNC45A C420 (UniProt Q9H3U1) | inactive: 0.208
CCDC86 C116 (UniProt Q9H6F5) | inactive: 0.382
CBX8 C261 (UniProt Q9HC52) | inactive: 0.419
UniProt Q9H3N1_C106 | inactive: -0.36
ZNF703 C96 (UniProt Q9H7S9) | inactive: 0.283
BCAS3 C836 (UniProt Q9H6U6) | inactive: -0.0114
FKRP C296 (UniProt Q9H9S5) | inactive: 0.415
GBA2 C311 (UniProt Q9HCG7) | inactive: 0.0243
UniProt Q9H8G2_C226 | inactive: 0.241
XPNPEP1 C502 (UniProt Q9NQW7) | inactive: -0.0301
IARS2 C414 (UniProt Q9NSE4) | inactive: 0.171
MDN1 C95 (UniProt Q9NU22) | inactive: 0.234
IARS2 C91 (UniProt Q9NSE4) | inactive: 0.0589
MBNL1 C43 (UniProt Q9NR56) | inactive: 0.305
AAAS C279 (UniProt Q9NRG9) | inactive: 0.698
UNC45A C503 (UniProt Q9H3U1) | inactive: 0.348
MBNL1 C34 (UniProt Q9NR56) | inactive: 0.254
EIF2B3 C334 (UniProt Q9NR50) | inactive: 0.16

Pulled one by one from the list above:
Target | log2 ratio of iodoacetamide-alkyne labeling
XPNPEP1 C502 (UniProt Q9NQW7) | inactive: -0.0301
AAAS C279 (UniProt Q9NRG9) | inactive: 0.698
FKRP C296 (UniProt Q9H9S5) | inactive: 0.415

Later entries

Target | log2 ratio of iodoacetamide-alkyne labeling
MDN1 C991 (UniProt Q9NU22) | inactive: -0.0771
PHAX C87 (UniProt Q9H814) | inactive: 0.706
RPRD1B C234 (UniProt Q9NQG5) | inactive: -0.119
ATG3 C264 (UniProt Q9NT62) | inactive: 0.149
ATG3 C50 (UniProt Q9NT62) | inactive: -0.0371
EPB41L5 C385 (UniProt Q9HCM4) | inactive: 0.0183
EHMT1 C276 (UniProt Q9H9B1) | inactive: 0.326
SMYD3 C421 (UniProt Q9H7B4) | inactive: 0.102
GRPEL1 C108 (UniProt Q9HAV7) | inactive: -0.322
ANLN C210 (UniProt Q9NQW6) | inactive: 0.104
ZNF106 C1069 (UniProt Q9H2Y7) | inactive: 0.194
PPAN C180 (UniProt Q9NQ55) | inactive: 0.333
PNO1 C64 (UniProt Q9NRX1) | inactive: 0.0827
NANS C8 (UniProt Q9NR45) | inactive: 0.106
CARS2 C526 (UniProt Q9HA77) | inactive: 0.207
EIF2B3 C64 (UniProt Q9NR50) | inactive: 0.238
SCAF1 C950 (UniProt Q9H7N4) | inactive: 0.333
DIAPH3 C868 (UniProt Q9NSV4) | inactive: 0.157

— the supplement of paper PMC11006884
